Results are given in words; binding and its absence hold for the method and conditions named. Binding seen in cells or lysates may run through a third protein. Some entries that bind do so weakly or less than the wild type.
T1: T-complex subunit δ (mouse (endogenous in mouse brain)) (UniProt P80315)
T1 sequence: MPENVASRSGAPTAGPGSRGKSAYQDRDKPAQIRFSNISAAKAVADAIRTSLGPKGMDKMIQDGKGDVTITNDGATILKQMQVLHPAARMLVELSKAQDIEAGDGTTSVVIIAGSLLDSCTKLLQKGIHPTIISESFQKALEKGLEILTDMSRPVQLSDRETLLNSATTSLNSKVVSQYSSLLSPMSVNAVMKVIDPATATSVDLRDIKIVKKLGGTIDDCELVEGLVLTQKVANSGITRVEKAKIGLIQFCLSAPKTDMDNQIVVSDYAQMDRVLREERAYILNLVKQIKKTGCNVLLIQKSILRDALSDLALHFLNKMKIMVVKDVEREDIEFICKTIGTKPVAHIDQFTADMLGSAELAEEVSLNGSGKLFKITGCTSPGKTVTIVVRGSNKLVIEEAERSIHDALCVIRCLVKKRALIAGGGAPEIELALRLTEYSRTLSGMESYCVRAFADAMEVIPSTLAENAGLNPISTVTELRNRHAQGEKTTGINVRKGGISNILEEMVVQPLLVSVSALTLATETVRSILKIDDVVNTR

Protein sequences, listed by entry. Tags and fused reporters are not part of them.
UniProt P11983: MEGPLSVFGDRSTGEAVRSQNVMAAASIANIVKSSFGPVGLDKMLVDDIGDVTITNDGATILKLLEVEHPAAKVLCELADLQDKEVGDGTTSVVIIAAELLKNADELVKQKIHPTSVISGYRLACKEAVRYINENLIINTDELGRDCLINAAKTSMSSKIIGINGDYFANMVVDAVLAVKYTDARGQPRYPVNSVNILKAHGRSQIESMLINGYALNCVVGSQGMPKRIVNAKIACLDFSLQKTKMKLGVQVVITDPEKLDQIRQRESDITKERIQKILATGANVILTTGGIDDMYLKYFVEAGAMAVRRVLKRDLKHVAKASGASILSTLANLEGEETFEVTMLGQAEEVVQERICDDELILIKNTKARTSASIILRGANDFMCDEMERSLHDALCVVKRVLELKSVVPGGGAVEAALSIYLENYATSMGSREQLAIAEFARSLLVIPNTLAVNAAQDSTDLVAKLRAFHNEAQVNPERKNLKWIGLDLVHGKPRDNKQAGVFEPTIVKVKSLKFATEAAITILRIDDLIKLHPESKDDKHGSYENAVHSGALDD


Assays:
[1] = molecular target: T1, T-complex subunit δ (mouse (endogenous in mouse brain)); test: cross-linking
[2] = molecular target: T-complex subunit α (mouse (endogenous in mouse brain)) (UniProt P11983); test: cross-linking

Binder	binding [1]	binding [2]
T-complex subunit β (protein, UniProt P80314 1-535) MASLSLAPVNIFKAGADEERAETARLSSFIGAIAIGDLVKSTLGPKGMDKILLSSGRDAALMVTNDGATILKNIGVDNPAAKVLVDMSRVQDDEVGDGTTSVTVLAAELLREAESLIAKKIHPQTIISGWREATKAAREALLSSAVDHGSDEARFWQDLMNIAGTTLSSKLLTHHKDHFTKLAVEAVLRLKGSGNLEAIHVIKKLGGSLADSYLDEGFLLDKKIGVNQPKRIENAKILIANTGMDTDKIKIFGSRVRVDSTAKVAEIEHAEKEKMKEKVERILKHGINCFINRQLIYNYPEQLFGAAGVMAIEHADFAGVERLALVTGGEIASTFDHPELVKLGSCKLIEEVMIGEDKLIHFSGVALGEACTIVLRGATQQILDEAERSLHDALCVLAQTVKDPRTVYGGGCSEMLMAHAVTQLANRTPGKEAVAMESFAKALRMLPTIIADNAGYDSADLVAQLRAAHSEGHITAGLDMKEGTIGDMAVLGITESFQVKRQVLLSAAEAAEVILRVDNIIKAAPRKRVPDHHPC	binds	–
T-complex subunit δ (protein, UniProt P80315 1-539) MPENVASRSGAPTAGPGSRGKSAYQDRDKPAQIRFSNISAAKAVADAIRTSLGPKGMDKMIQDGKGDVTITNDGATILKQMQVLHPAARMLVELSKAQDIEAGDGTTSVVIIAGSLLDSCTKLLQKGIHPTIISESFQKALEKGLEILTDMSRPVQLSDRETLLNSATTSLNSKVVSQYSSLLSPMSVNAVMKVIDPATATSVDLRDIKIVKKLGGTIDDCELVEGLVLTQKVANSGITRVEKAKIGLIQFCLSAPKTDMDNQIVVSDYAQMDRVLREERAYILNLVKQIKKTGCNVLLIQKSILRDALSDLALHFLNKMKIMVVKDVEREDIEFICKTIGTKPVAHIDQFTADMLGSAELAEEVSLNGSGKLFKITGCTSPGKTVTIVVRGSNKLVIEEAERSIHDALCVIRCLVKKRALIAGGGAPEIELALRLTEYSRTLSGMESYCVRAFADAMEVIPSTLAENAGLNPISTVTELRNRHAQGEKTTGINVRKGGISNILEEMVVQPLLVSVSALTLATETVRSILKIDDVVNTR	–	binds
